Data as given in PubChem BioAssay AID1224830 (NIAID, 2016).

- Aim: 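Genes whose knock-down alters the TNF-alpha reporter response to LPS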 (primary screen)
- Cells: human THP-1 monocytic leukaemia cells, TNF dual-luciferase reporter clone, PMA-differentiated to macrophage-like cells
- Knock-down reagent: siRNA pool against human genes, 50 nM
- Time to read-out: LPS for 4 h, given about 3 days after siRNA transfection
- Challenge: bacterial LPS (TLR4 ligand), 10 ng/ml
- Read-out: 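TNF firefly reporter luminescence divided by renilla, normalised to the plate median, then turned into a robust z-score for each replicate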
- Reading the numbers: TNF reporter robust z-score: higher = stronger TNF reporter response to LPS
- Rule for the call: 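a well is active when its z-score exceeds 2.8 or falls below -1.5; control wells carry no call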
The whole screen tested about 18,000 reagents; below is an unselected part. About 2,900 of all reagents (16%) count as active. 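Calls are made per well; low scores hint the gene aids the LPS response, high scores that it dampens it.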 A number with no mark means an inactive call. Repeated entries: four replicate wells of each siRNA pool.

gene	TNF reporter robust z-score
OR14K1	0.29
OR14K1	-0.1
OR14K1	-0.66
OR14K1	0.01
XPNPEP1	0.09
XPNPEP1	-0.73
XPNPEP1	-0.56
XPNPEP1	1.09
ACTC1	0.61
ACTC1	1.47
ACTC1	0.67
ACTC1	1.48
TAS2R5	1.56
TAS2R5	2.13
TAS2R5	0.71
TAS2R5	1.44
PTGIS	1.92
PTGIS	0.98
PTGIS	1.35
PTGIS	2.27
SLC25A32	0.57
SLC25A32	0.73
SLC25A32	0.65
SLC25A32	1.32
KRT222	-1.16
KRT222	-0.81
KRT222	-0.86
KRT222	-1.56 (active)
PPM1E	-0.08
PPM1E	0.45
PPM1E	-0.61
PPM1E	2.33
ME2	2.17
ME2	-0.67
ME2	-0.57
ME2	-0.96
ATP2B1	1.09
ATP2B1	1.48
ATP2B1	1.77
ATP2B1	0.54
CDY2A	-0.26
CDY2A	0.35
CDY2A	0.07
CDY2A	0.17
TAT	1.04
TAT	0.91
TAT	0.15
TAT	-0.68
PAX3	0.42
PAX3	2.63
PAX3	-0.06
PAX3	2.09
APLN	0.22
APLN	1.22
APLN	1.65
APLN	1.29
ZNF584	-0.09
ZNF584	1.57
ZNF584	0.57
ZNF584	-0.13
CASKIN2	-1.52 (active)
CASKIN2	-1.24
CASKIN2	-1.46
CASKIN2	-1.09
CDSN	-0.33
CDSN	0.21
CDSN	1.6
CDSN	-0.36
ERCC2	-1.05
ERCC2	0.41
ERCC2	1.09
ERCC2	0.93
GTF2IRD1	-1.25
GTF2IRD1	-0.38
GTF2IRD1	-1.15
GTF2IRD1	0.01
MORC3	-0.8
MORC3	-0.55
MORC3	-0.85
MORC3	-1.28
NOTCH2	-0.16
NOTCH2	0.32
NOTCH2	0.12
NOTCH2	1.41
FGF6	-0.96
FGF6	-0.27
FGF6	-0.98
FGF6	-0.46
ZNF280C	-0.14
ZNF280C	0.18
ZNF280C	0.75
ZNF280C	-0.2
LSP1	-1.5
LSP1	-0.87
LSP1	-0.89
LSP1	-0.82
GUCA1A	0.51
GUCA1A	-0.14
GUCA1A	-0.24
GUCA1A	0.69
FGR	-0.49
FGR	0.61
FGR	0.62
FGR	1.69
FAM32A	-0.99
FAM32A	-1.23
FAM32A	-1.21
FAM32A	-0.17
MYC	1.39
MYC	1.58
MYC	0.96
MYC	1.16
CDC20	2.33
CDC20	1.17
CDC20	2.21
CDC20	-0.03
KRT35	0.27
KRT35	0.76
KRT35	-1.22
KRT35	-0.03
SRD5A2	-1.96 (active)
SRD5A2	-2.12 (active)
SRD5A2	-2.19 (active)
SRD5A2	-1.68 (active)
ACER2	0.04
ACER2	0.72
ACER2	0.08
ACER2	0.16
TMEM267	1.58
TMEM267	1.46
TMEM267	2.37
TMEM267	0.73
EXOSC9	-0.95
EXOSC9	-0.15
EXOSC9	-0.28
EXOSC9	-0.64
EPC1	-1.13
EPC1	-0.29
EPC1	-0.17
EPC1	-0.06

Entries above called active:
gene	TNF reporter robust z-score
KRT222	-1.56 (active)
CASKIN2	-1.52 (active)
SRD5A2	-1.96 (active)
SRD5A2	-2.12 (active)
SRD5A2	-2.19 (active)
SRD5A2	-1.68 (active)
